# Reference: PMC7862700
# Chains of the proteins cited; added tags and fusions are not shown. Lines headed by an entry give the natural chain unless they say otherwise; changes in a name come on top.
# UniProt Q00613: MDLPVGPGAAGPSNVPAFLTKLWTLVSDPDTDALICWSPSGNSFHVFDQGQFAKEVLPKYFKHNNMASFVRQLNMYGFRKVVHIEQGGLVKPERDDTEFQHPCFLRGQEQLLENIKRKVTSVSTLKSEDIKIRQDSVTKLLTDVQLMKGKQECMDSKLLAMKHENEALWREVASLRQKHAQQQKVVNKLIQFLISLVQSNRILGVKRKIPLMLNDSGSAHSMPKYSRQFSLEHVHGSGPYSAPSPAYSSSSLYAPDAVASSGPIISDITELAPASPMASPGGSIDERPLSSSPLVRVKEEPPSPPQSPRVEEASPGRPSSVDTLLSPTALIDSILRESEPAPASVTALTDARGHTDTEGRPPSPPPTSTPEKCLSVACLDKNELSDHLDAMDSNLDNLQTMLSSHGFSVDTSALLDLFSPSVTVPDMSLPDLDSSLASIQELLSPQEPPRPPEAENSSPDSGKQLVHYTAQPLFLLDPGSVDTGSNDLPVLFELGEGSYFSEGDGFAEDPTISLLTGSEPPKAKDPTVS
# Only a part is listed here, and it is no random draw. For some assays here: At the low end of the ranking the order means little. The list shows a part of the results. For some assays here: Construct or isoform of the protein are uncertain.
# Target: HSF1 (UniProt Q00613)
# Experiment: DAPPL (digital affinity profiling via proximity ligation, sequencing)
# Conditions: 10 mM Tris-HCl pH 7.5, 50 mM NaCl, 1 mM DTT, 4% glycerol, room temperature, 30 min; GST-TFs on glutathione beads, 16-mer random dsDNA library, 0.1% …; high values mean tight binding; double strand, one strand shown; scale: fold enrichment (6-mer frequency, TF over GST control)
row,Sequence,binding signal
1,GCTCTC,1.42
2,ACCCCT,0.856
3,GCCCTG,0.795
4,GATGCG,0.895
5,TCATTG,0.886
6,CGCGGC,0.91
7,ACCACG,0.919
8,TAAATG,1.37
9,CAATTA,1.12
10,CCTCGC,1.36
11,CCCGCG,0.844
12,TCCGCA,1.21
13,CTTATA,1.65
14,TACAAT,1.32
15,TTAGAG,1.25
16,ATGTAG,0.909
17,CCGGTG,0.573
18,GCTACG,0.926
19,GATACC,0.732
20,GGACCT,1.18

row,Sequence,binding signal
1,ACCGCA,0.928
2,AATTGA,1.05
3,GCTAAG,1.13
4,GCGGAA,0.56
5,GCCAAC,0.733
6,CGTTAT,0.992
7,CTCGCT,1.66
8,TCGTCC,0.885
9,CCTGAA,1.54
10,CGAGGT,0.912
11,AAGCCG,0.991
12,TTTGGG,1.36
13,TTGTAT,1.21
14,AGCTGA,0.971
15,AAGGGC,0.92
16,TGCTCG,1.56
17,CATAGC,0.786
18,AGTGTC,0.75
19,CATCAC,0.899
20,CATATG,0.871

# Target: T1, ELF2 (UniProt Q15723)
# T1 sequence: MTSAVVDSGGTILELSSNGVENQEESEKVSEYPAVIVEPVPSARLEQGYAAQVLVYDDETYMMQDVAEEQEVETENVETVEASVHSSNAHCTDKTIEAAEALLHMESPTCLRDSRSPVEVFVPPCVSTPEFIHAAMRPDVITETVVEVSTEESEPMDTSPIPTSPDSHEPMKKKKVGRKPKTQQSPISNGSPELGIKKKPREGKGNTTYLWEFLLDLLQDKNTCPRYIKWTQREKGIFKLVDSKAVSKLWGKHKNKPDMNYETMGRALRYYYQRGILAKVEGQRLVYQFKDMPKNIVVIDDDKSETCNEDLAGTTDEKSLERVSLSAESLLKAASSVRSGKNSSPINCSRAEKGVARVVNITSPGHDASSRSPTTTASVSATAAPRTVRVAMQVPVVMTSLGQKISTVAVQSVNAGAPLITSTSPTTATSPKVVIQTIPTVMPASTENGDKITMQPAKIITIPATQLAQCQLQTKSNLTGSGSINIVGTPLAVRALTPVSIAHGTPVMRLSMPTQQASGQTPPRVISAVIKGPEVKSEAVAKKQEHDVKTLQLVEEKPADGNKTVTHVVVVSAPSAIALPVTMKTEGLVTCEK
# Experiment: as above
# Conditions: 10 mM Tris-HCl pH 7.5, 50 mM NaCl, 1 mM DTT, 4% glycerol, room temperature, 30 min; GST-TFs on glutathione beads, 16-mer random dsDNA library, 0.1% …; high values mean tight binding; double strand, one strand shown; scale: fold enrichment (6-mer frequency, TF over GST control)
row,Sequence,binding signal
1,GCTCTC,1.36
2,ACCCCT,1.05
3,GCCCTG,0.985
4,GATGCG,1.17
5,TCATTG,0.911
6,CGCGGC,0.948
7,ACCACG,1.04
8,TAAATG,1.23
9,CAATTA,1.12
10,CCTCGC,1.37
11,CCCGCG,0.913
12,TCCGCA,2.82
13,CTTATA,1.33
14,TACAAT,1.31
15,TTAGAG,0.838
16,ATGTAG,1.02
17,CCGGTG,1.11
18,GCTACG,1.1
19,GATACC,0.932
20,GGACCT,1.37

row,Sequence,binding signal
1,ACCGCA,1.17
2,AATTGA,1.17
3,GCTAAG,0.958
4,GCGGAA,2.09
5,GCCAAC,0.863
6,CGTTAT,1.09
7,CTCGCT,1.7
8,TCGTCC,0.965
9,CCTGAA,1.35
10,CGAGGT,0.917
11,AAGCCG,0.911
12,TTTGGG,1.25
13,TTGTAT,1.26
14,AGCTGA,1.03
15,AAGGGC,0.987
16,TGCTCG,1.15
17,CATAGC,0.917
18,AGTGTC,1.02
19,CATCAC,1.09
20,CATATG,0.979
